Experimental data: PubChem BioAssay AID1508588 (Peter MacCallum Cancer Centre, 2020)

- Aim: 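Knock-downs boosting vemurafenib effects on melanoma cell growth or lactate release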 (primary screen)
- Cell system: human WM266.4 melanoma cells (BRAF V600 mutant)
- Reagents: siRNA pool against human genes, 40 nM
- Duration: 96 h from transfection to read-out
- Treatment: vemurafenib 300 nM (about IC25), added 48 h after transfection, for 48 h; comparison arm got DMSO vehicle only
- Measurement: 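Ratios to non-targeting siRNA for cell gain, counted as DAPI nuclei after minus before drug and averaged over two replicates, and for absorbance-read medium lactate per cell; both binned into fold-change classes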
- Reading the numbers: cell gain with vemurafenib: higher = more cell gain than with non-targeting siRNA; lactate per cell with vemurafenib: higher = more lactate made per cell
- Active means: 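a knock-down counts as enhancing when its fold-change classes with vehicle and with vemurafenib, taken together, show a stronger drug effect on cell gain or lactate per cell; exact class pairs not stated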
- Calls: active = enhances vemurafenib effect; inactive = no enhancement seen
In all, the deposit lists about 18,000 reagents; shown is an unselected part. 790 of them (4.4%) were called active. 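Calls rest on a combination of fold-change classes in drug and vehicle arms, not all shown here.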 No sequences are given here.

no.	target gene	cell gain with vemurafenib	lactate per cell with vemurafenib	outcome
1	STX17 (syntaxin 17)	0.51	0.89	inactive
2	RAET1E (retinoic acid early transcript 1E)	0.61	0.28	inactive
3	SEC11C (SEC11 homolog C, signal peptidase complex subunit)	0.6	1.24	inactive
4	USF3 (upstream transcription factor family member 3)	0.48	0.76	inactive
5	WDR18 (WD repeat domain 18)	0.72	1.04	inactive
6	RAP1GAP2 (RAP1 GTPase activating protein 2)	0.58	0.21	inactive
7	MT1H (metallothionein 1H)	0.51	1.48	inactive
8	B3GALT2 (beta-1,3-galactosyltransferase 2)	0.67	0.62	inactive
9	MAPK3 (mitogen-activated protein kinase 3)	0.33	1.38	inactive
10	CLIC3 (CLIC family member 3)	0.32	1.94	inactive
11	STK11 (serine/threonine kinase 11)	0.2	1.22	inactive
12	ZNF334 (zinc finger protein 334)	1.03	0.34	inactive
13	ACSM6 (acyl-CoA synthetase medium chain family member 6)	0.98	1.39	inactive
14	COG4 (component of oligomeric golgi complex 4)	0.81	0.65	inactive
15	DNASE1L2 (deoxyribonuclease 1 like 2)	0.9	0.77	inactive
16	YIPF1 (Yip1 domain family member 1)	1.01	0.74	inactive
17	FUT7 (fucosyltransferase 7)	0.73	0.88	inactive
18	GPR137B (G protein-coupled receptor 137B)	0.63	0.52	inactive
19	CIAO3 (cytosolic iron-sulfur assembly component 3)	0.74	0.02	inactive
20	CDC37 (cell division cycle 37, HSP90 cochaperone)	1.19	1.08	inactive
21	LHX4 (LIM homeobox 4)	0.92	0.87	inactive
22	ZNF273 (zinc finger protein 273)	0.14	1.57	inactive
23	NNAT (neuronatin)	0.63	0.82	inactive
24	ADAD1 (adenosine deaminase domain containing 1)	0.91	0.7	inactive
25	LRRC8A (leucine rich repeat containing 8 VRAC subunit A)	0.38	0.98	inactive
26	GLB1L3 (galactosidase beta 1 like 3)	1.04	0.84	inactive
27	OR2T12 (olfactory receptor family 2 subfamily T member 12)	0.2	2.26	inactive
28	PCDHGA2 (protocadherin gamma subfamily A, 2)	0.4	0.52	inactive
29	IFNA1 (interferon alpha 1)	0.5	1.31	inactive
30	HMOX1 (heme oxygenase 1)	0.94	0.9	inactive
31	LINC00173 (long independently transcribed non-coding RNA 173)	0.41	0.62	inactive

The list goes on; the last 3 above are carried over.
no.	target gene	cell gain with vemurafenib	lactate per cell with vemurafenib	outcome
29	IFNA1 (interferon alpha 1)	0.5	1.31	inactive
30	HMOX1 (heme oxygenase 1)	0.94	0.9	inactive
31	LINC00173 (long independently transcribed non-coding RNA 173)	0.41	0.62	inactive
32	HECTD1 (HECT domain E3 ubiquitin protein ligase 1)	0.23	0.64	inactive
33	GAD1 (glutamate decarboxylase 1)	0.83	1.07	inactive
34	FKBP7 (FKBP prolyl isomerase 7)	0.42	1.24	inactive
35	SUB1 (SUB1 regulator of transcription)	0.94	0.68	inactive
36	EPHX3 (epoxide hydrolase 3)	0.15	1.22	inactive
37	SLC4A5	1.03	0.9	inactive
38	WDR47 (WD repeat domain 47)	0.61	1.24	inactive
39	XPO4 (exportin 4)	0.63	0.31	inactive
40	POPDC3 (popeye domain cAMP effector 3)	0.25	1.4	inactive
41	KANSL1 (KAT8 regulatory NSL complex subunit 1)	0.04	2.25	inactive
42	SLC26A3	1.18	1.16	inactive
43	WFDC6 (WAP four-disulfide core domain 6)	0.57	1.88	inactive
44	LINC00174 (long independently transcribed non-coding RNA 174)	0.14	3.92	inactive
45	MECP2 (methyl-CpG binding protein 2)	0.21	1.72	inactive
46	CEP41 (centrosomal protein 41)	0.13	1.38	inactive
47	ARHGAP29 (Rho GTPase activating protein 29)	0.53	1.48	inactive
48	RPS15A (ribosomal protein S15a)	-0.02	1.04	inactive
49	FAM169BP (family with sequence similarity 169 member B, pseudogene)	0.67	0.54	inactive
50	SLC45A4	0.92	0.74	inactive
51	UBE2NL (ubiquitin conjugating enzyme E2 N like (gene/pseudogene))	0.5	0.76	inactive
52	AXIN1 (axin 1)	0.78	1.26	inactive
53	FBXO46 (F-box protein 46)	0.66	1.5	inactive
54	IL5RA (interleukin 5 receptor subunit alpha)	1.11	0.88	inactive
55	IER2 (immediate early response 2)	0.23	1.31	inactive
56	HSD17B7 (hydroxysteroid 17-beta dehydrogenase 7)	0.99	0.68	inactive
57	VGLL2 (vestigial like family member 2)	0.32	2.4	inactive
